{"source": "patent US7019123B2", "about": "“Human bikunin” (Bayer Corporation, priority 1996, dated 2006)", "assay": "Isoelectric point by isoelectric focusing (Ampholine PAGplate pH 3.5 to 9.5)", "type": "physicochemical", "conditions": "refolded purified protein", "note": "Not every detail of the peptide structures is certain; ends, links or a residue may be inferred.", "data": [{"smiles": "CC[C@H](C)[C@@H]1NC(=O)[C@H](Cc2ccccc2)NC(=O)[C@H](CC(N)=O)NC(=O)[C@H](CC(N)=O)NC(=O)[C@@H]2CSSC[C@@H]3NC(=O)[C@H](C)NC(=O)[C@H](CCC(=O)O)NC(=O)[C@H](CCC(=O)O)NC(=O)[C@H](CO)NC(=O)[C@H](CCCNC(=N)N)NC(=O)[C@H](Cc4ccc(O)cc4)NC(=O)[C@H](CO)NC(=O)[C@H](CC(N)=O)NC(=O)[C@H](CCCCN)NC(=O)[C@H](CC(N)=O)NC(=O)CNC(=O)[C@H](CCCNC(=N)N)NC(=O)[C@H](CSSC[C@H](NC(=O)[C@@H]4CCCN4C(=O)CNC(=O)[C@H]([C@@H](C)O)NC(=O)[C@H](C(C)C)NC(=O)[C@H](C)NC(=O)[C@H](CC(N)=O)NC(=O)[C@H](C)NC(=O)[C@H]([C@@H](C)O)NC(=O)[C@@H](NC(=O)[C@H](Cc4ccc(O)cc4)NC(=O)[C@H](CCC(=O)O)NC(=O)[C@H](CCC(=O)O)NC(=O)[C@@H](N)Cc4ccc(O)cc4)CSSC[C@@H](C(=O)N[C@@H](Cc4ccccc4)C(=O)N[C@@H](CCCNC(=N)N)C(=O)N[C@@H](CCC(N)=O)C(=O)O)NC(=O)[C@H](CCCNC(=N)N)NC(=O)[C@H](CC(C)C)NC(=O)[C@H](CCSC)NC3=O)C(=O)N[C@@H](CCCNC(=N)N)C(=O)N[C@@H](C)C(=O)N[C@@H](CO)C(=O)N[C@@H](Cc3ccccc3)C(=O)N3CCC[C@H]3C(=O)N[C@@H](CCCNC(=N)N)C(=O)N[C@@H](Cc3c[nH]c4ccccc34)C(=O)N[C@@H](Cc3ccc(O)cc3)C(=O)N[C@@H](Cc3ccccc3)C(=O)N[C@@H](CC(=O)O)C(=O)N[C@@H](C(C)C)C(=O)N[C@@H](CCC(=O)O)C(=O)N[C@@H](CCCNC(=N)N)C(=O)N[C@@H](CC(N)=O)C(=O)N[C@@H](CO)C(=O)N2)NC(=O)CNC(=O)CNC(=O)[C@H](Cc2ccc(O)cc2)NC1=O", "note": "[bikunin (102–159)]", "values": [{"measurement": "pI", "value": 8.3}]}]}
